Results are given in words; binding and its absence hold for the method and conditions named.

This experiment deals with human RTEL1 HHD2 fragment (second harmonin homology domain) (human) (UniProt Q9NZ71). Description: SEC-SAXS; in-line Superdex 75 Increase column, 0.2 mL/min, 20 °C; 50 mM Hepes pH 7 (HHD1: TRIS pH 8), 150 mM NaCl, 10% glycerol, 1 mM TCEP; EMBL P12 beamline; both purified. In general terms: SEC sorts molecules by how far they enter the pores of the column.

B1: human RTEL1 HHD2 fragment (second harmonin homology domain) (domain or fragment, UniProt Q9NZ71 1053-1147)
chain: GKQGQHAVSAYLADARRALGSAGCSQLLAALTAYKQDDDLDKVLAVLAALTTAKPEDFPLLHRFSMFVRPHHKQRFSQTCTDLTGRPYPGMEPPG
B1: the binding entry is “no binding (tested: 6.2 mg/mL)”.

For the origin of these results see PMC11344278, “Structural and biochemical characterization of the C‐terminal region of the human RTEL1 helicase” (Protein Science : A Publication of the Protein Society, 2024).
